These results are taken from PMC9351435.

Amino acid sequences for entries named in this document (tags omitted).
UniProt Q9GZT9: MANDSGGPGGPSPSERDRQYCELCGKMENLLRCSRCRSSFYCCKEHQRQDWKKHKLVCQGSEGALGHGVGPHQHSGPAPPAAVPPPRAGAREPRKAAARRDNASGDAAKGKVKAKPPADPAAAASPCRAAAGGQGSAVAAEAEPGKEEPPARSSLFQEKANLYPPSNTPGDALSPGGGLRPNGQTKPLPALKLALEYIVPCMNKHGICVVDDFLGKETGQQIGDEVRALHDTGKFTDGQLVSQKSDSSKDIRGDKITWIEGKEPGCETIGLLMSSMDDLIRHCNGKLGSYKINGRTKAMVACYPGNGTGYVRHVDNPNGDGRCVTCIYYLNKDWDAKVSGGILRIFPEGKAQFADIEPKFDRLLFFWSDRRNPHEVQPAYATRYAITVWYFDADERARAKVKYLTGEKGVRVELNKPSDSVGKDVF
UniProt P40337: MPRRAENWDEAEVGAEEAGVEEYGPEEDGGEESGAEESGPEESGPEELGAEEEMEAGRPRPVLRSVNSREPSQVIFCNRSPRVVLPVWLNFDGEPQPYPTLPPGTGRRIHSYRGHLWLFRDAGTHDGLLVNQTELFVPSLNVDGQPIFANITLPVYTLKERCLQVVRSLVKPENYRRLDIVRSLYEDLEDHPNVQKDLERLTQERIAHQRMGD
UniProt Q16665: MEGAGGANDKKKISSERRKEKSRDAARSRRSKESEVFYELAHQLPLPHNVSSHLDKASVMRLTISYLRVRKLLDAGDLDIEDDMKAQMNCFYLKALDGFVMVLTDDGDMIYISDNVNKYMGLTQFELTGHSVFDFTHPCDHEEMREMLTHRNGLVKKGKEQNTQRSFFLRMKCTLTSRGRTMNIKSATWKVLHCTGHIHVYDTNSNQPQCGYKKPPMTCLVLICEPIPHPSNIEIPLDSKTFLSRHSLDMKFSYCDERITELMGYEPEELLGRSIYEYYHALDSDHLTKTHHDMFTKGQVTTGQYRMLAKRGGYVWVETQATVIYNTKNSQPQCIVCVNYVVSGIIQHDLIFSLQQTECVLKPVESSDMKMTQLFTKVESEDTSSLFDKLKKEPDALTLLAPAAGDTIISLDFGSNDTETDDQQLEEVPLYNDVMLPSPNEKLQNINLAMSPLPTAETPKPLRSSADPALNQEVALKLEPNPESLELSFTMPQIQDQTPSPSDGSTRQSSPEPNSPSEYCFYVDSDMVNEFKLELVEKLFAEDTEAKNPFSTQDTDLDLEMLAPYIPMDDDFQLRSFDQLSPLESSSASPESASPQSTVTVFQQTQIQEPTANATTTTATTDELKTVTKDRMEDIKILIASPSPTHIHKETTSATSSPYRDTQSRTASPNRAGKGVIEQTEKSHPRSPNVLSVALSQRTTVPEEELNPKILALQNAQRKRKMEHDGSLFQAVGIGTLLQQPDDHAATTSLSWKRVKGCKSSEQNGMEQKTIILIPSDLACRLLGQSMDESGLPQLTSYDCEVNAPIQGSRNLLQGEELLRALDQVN
UniProt P46937: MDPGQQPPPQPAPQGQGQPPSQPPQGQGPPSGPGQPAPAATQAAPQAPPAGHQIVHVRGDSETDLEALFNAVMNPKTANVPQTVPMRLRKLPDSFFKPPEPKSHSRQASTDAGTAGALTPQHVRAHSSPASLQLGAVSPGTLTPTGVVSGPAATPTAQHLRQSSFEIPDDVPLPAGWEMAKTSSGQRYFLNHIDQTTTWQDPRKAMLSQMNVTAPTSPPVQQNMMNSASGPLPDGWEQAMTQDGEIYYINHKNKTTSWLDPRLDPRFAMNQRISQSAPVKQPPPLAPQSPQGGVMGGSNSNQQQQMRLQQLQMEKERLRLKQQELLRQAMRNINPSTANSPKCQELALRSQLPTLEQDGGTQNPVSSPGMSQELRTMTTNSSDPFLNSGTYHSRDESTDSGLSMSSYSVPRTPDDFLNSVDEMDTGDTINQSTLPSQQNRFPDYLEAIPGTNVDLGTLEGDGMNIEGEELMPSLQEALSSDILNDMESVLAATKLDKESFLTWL
UniProt Q9GZV5: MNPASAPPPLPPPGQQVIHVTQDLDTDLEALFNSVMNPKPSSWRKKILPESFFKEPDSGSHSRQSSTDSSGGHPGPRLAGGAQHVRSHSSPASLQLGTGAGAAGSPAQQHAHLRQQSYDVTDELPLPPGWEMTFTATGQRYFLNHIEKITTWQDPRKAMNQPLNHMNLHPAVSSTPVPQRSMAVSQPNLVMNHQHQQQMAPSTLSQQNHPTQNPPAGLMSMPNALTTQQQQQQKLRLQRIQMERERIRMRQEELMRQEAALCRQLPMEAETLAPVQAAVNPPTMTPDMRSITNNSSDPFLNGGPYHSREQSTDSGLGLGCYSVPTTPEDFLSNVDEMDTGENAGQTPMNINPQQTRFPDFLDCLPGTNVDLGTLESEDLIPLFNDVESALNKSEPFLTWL

Results are given in words; binding and its absence hold for the method and conditions named. In cells and extracts the contact can be indirect. Some entries that bind do so weakly or less than the wild type.

In assay [1] the target is prolyl hydroxylase 2 (PHD2) (human (endogenous in A549 and H1650)) (UniProt Q9GZT9). In words: co-IP; IP-Western blot of endogenous proteins from A549 and H1650 lysates; normoxic or hypoxic cells, also after PHD2 siRNA, DMOG or visudyne; control IgG IP. For orientation: A western blot detects proteins with antibodies after separation by electrophoresis.
Assay [2] deals with von Hippel–Lindau (VHL) protein (human (endogenous in A549 and H1650)) (UniProt P40337). Put plainly: proximity ligation; Duolink PLA on fixed, permeabilised A549 and H1650 cells with pairs of primary antibodies; cells in normoxia, hypoxia (1% O2, 24 h) or treated with DMOG; single-antibody controls.
Assay [3] concerns the target HIF1α (human (endogenous in A549 and H1650)) (UniProt Q16665). The assay is described as above.
The target in assay [4] is prolyl hydroxylase 2 (PHD2) (human (endogenous in A549 and H1650)) (UniProt Q9GZT9). The description is as above.
For assay [5], the target named is HIF1α (human (endogenous in A549 and H1650)) (UniProt Q16665). In words: proximity ligation; PLA on a human lung tumor tissue microarray (normal lung, adenocarcinoma, squamous cell carcinoma, metastases).
The target is the same in assay [6]. In words: proximity ligation; PLA on human renal cell carcinoma tissue samples (TMA) against normal kidney.
For assay [7] the target is unchanged. In words: proximity ligation; PLA on mouse lung-xenograft tumour tissues.
Assay [8] has as its target von Hippel–Lindau (VHL) protein (human (endogenous in A549 and H1650)) (UniProt P40337). In words: co-IP; IP-Western blot of endogenous proteins from A549 and H1650 lysates; normoxic or hypoxic cells, also after PHD2 siRNA, DMOG or visudyne; control IgG IP.
The target in assay [9] is HIF1α (human (endogenous in A549 and H1650)) (UniProt Q16665). The description is as above.
The target in assay [10] is Yes-associated protein 1 (YAP1) (human (endogenous in A549 and H1650)) (UniProt P46937). Described as above.

In the case of TAZ (from UniProt Q9GZV5 1-400), the binding result in [1] was “binds weakly”.
For the substance “Yes-associated protein 1 (YAP1) (from UniProt P46937 1-504)”, the binding result in [2], in assay [3], in assay [4], in assay [5], in [6] and in [7] was “binds” each time. The binding entry in assay [8], in [9] and in assay [1] was “binds” each time.
With HIF1α (from UniProt Q16665 1-826), the binding result in assay [10] was “binds”.
With “von Hippel–Lindau (VHL) protein (from UniProt P40337 1-213)”, the binding entry in [10] is reported as “binds”.
